Data reported in paper PMC9992512.
These are yes or no findings as the source states them, for the method shown. Binding seen in cells or lysates may run through a third protein. These calls come from enrichment with a bait or labelling near it, and not all partners need be listed.

By UniProt entry, the sequences of proteins in these tests, tags left out.
UniProt Q02085: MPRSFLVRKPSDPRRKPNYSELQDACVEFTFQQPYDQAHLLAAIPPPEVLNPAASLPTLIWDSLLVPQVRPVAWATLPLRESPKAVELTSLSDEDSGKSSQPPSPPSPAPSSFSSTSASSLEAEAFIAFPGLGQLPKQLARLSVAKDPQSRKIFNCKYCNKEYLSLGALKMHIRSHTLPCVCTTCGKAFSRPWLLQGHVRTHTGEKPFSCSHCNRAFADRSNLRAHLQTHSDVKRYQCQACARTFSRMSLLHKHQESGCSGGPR
UniProt Q62432: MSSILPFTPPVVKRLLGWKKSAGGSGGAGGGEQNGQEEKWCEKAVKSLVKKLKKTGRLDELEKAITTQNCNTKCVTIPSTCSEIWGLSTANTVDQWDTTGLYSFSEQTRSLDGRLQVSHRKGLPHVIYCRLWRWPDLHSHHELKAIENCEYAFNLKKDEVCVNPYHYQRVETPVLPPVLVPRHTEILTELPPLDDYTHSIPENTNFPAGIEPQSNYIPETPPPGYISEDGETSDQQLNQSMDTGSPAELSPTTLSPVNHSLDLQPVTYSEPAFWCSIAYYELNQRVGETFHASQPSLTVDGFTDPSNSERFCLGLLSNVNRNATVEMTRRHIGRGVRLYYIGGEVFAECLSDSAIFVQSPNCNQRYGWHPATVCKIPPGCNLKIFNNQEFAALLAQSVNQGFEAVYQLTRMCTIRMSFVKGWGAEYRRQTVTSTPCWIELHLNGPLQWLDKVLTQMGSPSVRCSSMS

B1: NFKB2 (protein, UniProt Q9WTK5 1-899)
chain: MDNCYDPGLDGIPEYDDFEFSPSIVEPKDPAPETADGPYLVIVEQPKQRGFRFRYGCEGPSHGGLPGASSEKGRKTYPTVKICNYEGPAKIEVDLVTHSDPPRAHAHSLVGKQCSELGVCAVSVGPKDMTAQFNNLGVLHVTKKNMMEIMIQKLQRQRLRSKPQGLTEAERRELEQEAKELKKVMDLSIVRLRFSAFLRASDGSFSLPLKPVISQPIHDSKSPGASNLKISRMDKTAGSVRGGDEVYLLCDKVQKDDIEVRFYEDDENGWQAFGDFSPTDVHKQYAIVFRTPPYHKMKIERPVTVFLQLKRKRGGDVSDSKQFTYYPLVEDKEEVQRKRRKALPTFSQPFGGGSHMGGGSGGSAGGYGGAGGGGSLGFFSSSLAYNPYQSGAAPMGCYPGGGGGAQMAGSRRDTDAGEGAEEPRTPPEAPQGEPQALDTLQRAREYNARLFGLAQRSARALLDYGVTADARALLAGQRHLLMAQDENGDTPLHLAIIHGQTGVIEQIAHVIYHAQYLGVINLTNHLHQTPLHLAVITGQTRVVSFLLQVGADPTLLDRHGDSALHLALRAGAAAPELLQALLRSGAHAVPQILHMPDFEGLYPVHLAVHARSPECLDLLVDCGAEVEAPERQGGRTALHLATEMEELGLVTHLVTKLHANVNARTFAGNTPLHLAAGLGSPTLTRLLLKAGADIHAENEEPLCPLPSPSTSGSDSDSEGPERDTQRNFRGHTPLDLTCSTKVKTLLLNAAQNTTEPPLAPPSPAGPGLSLGDAALQNLEQLLDGPEAQGSWAELAERLGLRSLVDTYRKTPSPSGSLLRSYKLAGGDLVGLLEALSDMGLHEGVRLLKGPETRDKLPSTEVKEDSAYGSQSVEQEAEKLCPPPEPPGGLCHGHPQPQVH

Molecular target: SNAIL (mouse) (UniProt Q02085)
Experiment: affinity purification with mass spectrometry; ChIP-MS: PKras^G12D/+;Snail^KI/+ PDAC cells (P144) fixed in 1% formaldehyde, chromatin sonicated to about 500 bp; 1 mg extract immunoprecipitated with anti-Snail rabbit mAb or IgG control overnight at 4 °C, protein A + G magnetic beads, low salt (140 mM NaCl) and high salt (500 mM NaCl) washes; label-free LC-MS/MS

Molecule | binding
SMAD2 (from UniProt Q62432 1-467) | binds
B1 | binds
